Assay results reported in article PMC7819943, “Rice protein-binding microarrays: a tool to detect cis-acting elements near promoter regions in rice”.
The other results are listed elsewhere or left out.

Target: T1, OsSMF1 (Oryza sativa, UniProt Q6ZLB0 1-436)
T1 sequence: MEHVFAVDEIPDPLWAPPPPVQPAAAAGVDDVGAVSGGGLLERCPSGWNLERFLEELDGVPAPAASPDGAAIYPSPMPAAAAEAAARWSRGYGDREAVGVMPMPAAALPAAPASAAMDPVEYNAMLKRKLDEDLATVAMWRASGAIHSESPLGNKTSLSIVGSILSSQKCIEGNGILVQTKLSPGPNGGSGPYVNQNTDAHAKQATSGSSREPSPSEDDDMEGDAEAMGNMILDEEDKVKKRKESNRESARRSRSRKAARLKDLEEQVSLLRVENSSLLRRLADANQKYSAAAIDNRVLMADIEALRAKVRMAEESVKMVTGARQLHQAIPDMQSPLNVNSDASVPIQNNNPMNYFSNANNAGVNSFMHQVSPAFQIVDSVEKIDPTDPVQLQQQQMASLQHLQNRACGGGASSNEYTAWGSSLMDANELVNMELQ
Assay: protein-binding microarray (RPBM); PBS, 2% BSA, 51.3 ng/ul salmon testes DNA, 50 uM zinc acetate, 200 nM TF, 25 C, 1 h; high values mean tight binding
Conditions: protein: recombinant; tags: N-terminal polyhistidine and DsRed monomer fusion (pET32a); chain copies: 2; label: CyDye5-dUTP incorporated in the synthesized complementary strand; 3' TTTTT single-stranded linker to array surface; dsDNA, one strand shown
In short: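 An Axon 4000B scanner gave the binding signal as per-feature fluorescence intensity in arbitrary units. This followed washing of a custom Agilent array that had been incubated for 1 h at 25 °C with 200 nM protein in PBS, 2% BSA, salmon testes DNA and 50 µM zinc acetate. The proteins were transcription factors fused at the N-terminus to polyhistidine and DsRed, expressed in E. coli BL21-CodonPlus and purified on Ni–NTA.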

Sequence | binding signal
CCATTCGCTCGTGCTCTCGTTGGCGTGGAACAACAGGTGCCGGAGTCACCTAGTGCAG | 3420 fluorescence intensity (a.u.)
GGCCCACTCAACCACGTTTCAGTTACTCCTTAATGACCCACGGAGTCACCTAGTGCAG | 3860 fluorescence intensity (a.u.)
TGTTGCTCGGCCAAACGTACACACAGTTCGTTATATATCGCGGAGTCACCTAGTGCAG | 12100 fluorescence intensity (a.u.)
TAAGTTTCTAAGGAAATGACCATCATAATGATGTTGACATCGGAGTCACCTAGTGCAG | 3220 fluorescence intensity (a.u.)
CACCCGCACCCGCCCGCACGGCCGCGCCCGCGTCACCACCCGGAGTCACCTAGTGCAG | 6150 fluorescence intensity (a.u.)
AGAATTTGTTCGTCACCCATATATCGGCGTCATGACCTCGCGGAGTCACCTAGTGCAG | 3510 fluorescence intensity (a.u.)
GTCTCCCTGCGACGCTGGCGCCATCGCGTCACCGTCTCCGCGGAGTCACCTAGTGCAG | 7170 fluorescence intensity (a.u.)
CAGTTGAGGCTAGGTGGTGTTTATTGACACTATCAAAATTCGGAGTCACCTAGTGCAG | 3230 fluorescence intensity (a.u.)
CCTGCTTAATTATTGCCTAGGATGCTCTGTCATCCTAATTCGGAGTCACCTAGTGCAG | 3250 fluorescence intensity (a.u.)
GTCATGGAACTCGTGGCGTCATCACATCAGCAAATCCAAGCGGAGTCACCTAGTGCAG | 6520 fluorescence intensity (a.u.)
GTTTTGTATGTAATTATTGCTAGTGGATGATGATGTATCACGGAGTCACCTAGTGCAG | 3770 fluorescence intensity (a.u.)
CCAGCCCAGCTGTCCACGTCAGCCATGGCCCTTCTGGTGGCGGAGTCACCTAGTGCAG | 23800 fluorescence intensity (a.u.)
TGAGGGCACAGTGCTCTCGAGCATGTCTGCCACGTAGGATCGGAGTCACCTAGTGCAG | 23800 fluorescence intensity (a.u.)
TATGTGGATAATTGCAGTTCATCCACGTATGACAACTGGGCGGAGTCACCTAGTGCAG | 8410 fluorescence intensity (a.u.)
ATTTTGATCCACCAGTTTACACGCCAGGAATTAAACCATGCGGAGTCACCTAGTGCAG | 3670 fluorescence intensity (a.u.)
TGGACTTGGTCAGGGACTTTGTGCGTCAGAATTTCTATGCCGGAGTCACCTAGTGCAG | 3600 fluorescence intensity (a.u.)
TGCCAACGTAATAGACAGTACGGTACAGAACATGTCAAATCGGAGTCACCTAGTGCAG | 3670 fluorescence intensity (a.u.)
CAGACGGTCGTCGTCACCGCGGCGAACGGCTCGTCGGTGGCGGAGTCACCTAGTGCAG | 4130 fluorescence intensity (a.u.)
CCGTGGGACTTGTAGGGCTTGACGAGGGCGCCGGTGTGGGCGGAGTCACCTAGTGCAG | 3280 fluorescence intensity (a.u.)
CAACGCCCTCCGTCGTCACGAAGTAATCGGCGCCGTCTTTCGGAGTCACCTAGTGCAG | 4620 fluorescence intensity (a.u.)
TTTGAAACCGAATATATGTTGTGGATGCGTCACGGCCCACCGGAGTCACCTAGTGCAG | 8350 fluorescence intensity (a.u.)
CGCCGGTCTTCTGGCTTACGCGGCTAAGGAATATCTATGCCGGAGTCACCTAGTGCAG | 3360 fluorescence intensity (a.u.)
CATGCTTAACAGCGTAATTAAGCTTGCATTGCTAATCCTGCGGAGTCACCTAGTGCAG | 3170 fluorescence intensity (a.u.)
TTTAGTAAATTACCTGCTCTTGAAATTGTTGGTTTCAGGCCGGAGTCACCTAGTGCAG | 7840 fluorescence intensity (a.u.)
TTCGTGCCCAACCGCACCGCACGTCGTCCGTCCCCACCCCCGGAGTCACCTAGTGCAG | 4000 fluorescence intensity (a.u.)
TTTATTTTGGTGACTAAGATGCCACATTAGTGAAATCAGGCGGAGTCACCTAGTGCAG | 3440 fluorescence intensity (a.u.)
AATCCCTTAGGATTTCTTACCGAACTTGTACAAACACCTACGGAGTCACCTAGTGCAG | 18900 fluorescence intensity (a.u.)

Sequence | binding signal
TTAGTGGCAAGAGATGTAAGAAACAAAATCCCCACATGGACGGAGTCACCTAGTGCAG | 3210 fluorescence intensity (a.u.)
CCGGCCTAACCAGGAAATTGCAGACTTGACTCGTCACTTGCGGAGTCACCTAGTGCAG | 4100 fluorescence intensity (a.u.)
TATAACTCGCGTATTTGTAGGATGCTATTATACAGTTTTCCGGAGTCACCTAGTGCAG | 3490 fluorescence intensity (a.u.)
ACCAGTACCTGAATTATCAGAAATTGATCATTTGCGTAATCGGAGTCACCTAGTGCAG | 13900 fluorescence intensity (a.u.)
TTAATTAGCATTTGGTTGGATTGTGGCAGGTGACAGTGCGCGGAGTCACCTAGTGCAG | 3170 fluorescence intensity (a.u.)
CCCATGTGGCCACGTATGGTGGAAAATGAACATCCTTGTTCGGAGTCACCTAGTGCAG | 4600 fluorescence intensity (a.u.)
GATAGCGATGTGGAGTTTGAGATGGCTATGGAGGCATGTGCGGAGTCACCTAGTGCAG | 4350 fluorescence intensity (a.u.)
CGAATGTACGGTCTGCCTAGTGGCGGAAGCTAGTATCCTTCGGAGTCACCTAGTGCAG | 3180 fluorescence intensity (a.u.)
TCGTTCGTTCATCTAACTGCACGTCACGCCCTCCGCGTGTCGGAGTCACCTAGTGCAG | 9890 fluorescence intensity (a.u.)
AGGCATATTTTGGAATAGCAGAGGTCTCGGTGACTTGGCTCGGAGTCACCTAGTGCAG | 3460 fluorescence intensity (a.u.)
ACGGTTTGCTTCGCCACACGCGCACAGAAACACACACACACGGAGTCACCTAGTGCAG | 3380 fluorescence intensity (a.u.)
AATTAACCTGGCAGCTGATACACGTACTCTTGCTTTGGCCCGGAGTCACCTAGTGCAG | 5300 fluorescence intensity (a.u.)
AGGAAGCATGGTGGTGGTCGTCGTGGCATGGATGGCGTCTCGGAGTCACCTAGTGCAG | 4890 fluorescence intensity (a.u.)
CAGTGATCCTATTCGAAAACTTCACGCCTCCGACACGTGGCGGAGTCACCTAGTGCAG | 9740 fluorescence intensity (a.u.)
TCATCATCATCATCATTATTAAAGTAAATTTCAGAAAACTCGGAGTCACCTAGTGCAG | 21600 fluorescence intensity (a.u.)
AATGATAAAATTTTAATTAATCATATGCTAATGACTTACTCGGAGTCACCTAGTGCAG | 3230 fluorescence intensity (a.u.)
TGCCAGAGGGATCTAAATATGGCCTTAGTATTATTCCGTGCGGAGTCACCTAGTGCAG | 8170 fluorescence intensity (a.u.)
CTCTCTCCTATCCTCCTTCTTCCTCACGCACGTGGCGGAGCGGAGTCACCTAGTGCAG | 4310 fluorescence intensity (a.u.)
AAATATTTATTGAAAAGTGATATGTGTATACTTTTATGAACGGAGTCACCTAGTGCAG | 21800 fluorescence intensity (a.u.)
TTGTTGAAGCAGTTTAATGTTAATAGTATACTAACATTAACGGAGTCACCTAGTGCAG | 28600 fluorescence intensity (a.u.)
AACCATCATCATTCATCACCAATCATGAGATCCACTCCCCCGGAGTCACCTAGTGCAG | 3280 fluorescence intensity (a.u.)
CATCGAGCACGAGTATGACTCGATGTATAATGTCGTATATCGGAGTCACCTAGTGCAG | 3360 fluorescence intensity (a.u.)
TTGAACATGATTTGTGGTGGGTGGAGTGATTTATGTCATTCGGAGTCACCTAGTGCAG | 3460 fluorescence intensity (a.u.)
GCCGCGCCGCCTCGCCCGACGTCGTAGCAACCAAGCCACCCGGAGTCACCTAGTGCAG | 3460 fluorescence intensity (a.u.)
CTGAAAATCTTGTTCTGAATTCCAATAGAAAAGTTATTCTCGGAGTCACCTAGTGCAG | 3540 fluorescence intensity (a.u.)
AATCGTGCTATACGTCCATTCTCCACGTGGCATGCCAGGTCGGAGTCACCTAGTGCAG | 24200 fluorescence intensity (a.u.)
ACAAGTGGGCCAAGAAGAACACGTCCTACTTGAAAGTGTGCGGAGTCACCTAGTGCAG | 3310 fluorescence intensity (a.u.)

Not a retest: entries from further up.
Sequence | binding signal
CACCCGCACCCGCCCGCACGGCCGCGCCCGCGTCACCACCCGGAGTCACCTAGTGCAG | 6150 fluorescence intensity (a.u.)
AGAATTTGTTCGTCACCCATATATCGGCGTCATGACCTCGCGGAGTCACCTAGTGCAG | 3510 fluorescence intensity (a.u.)
GTCTCCCTGCGACGCTGGCGCCATCGCGTCACCGTCTCCGCGGAGTCACCTAGTGCAG | 7170 fluorescence intensity (a.u.)
CAGTTGAGGCTAGGTGGTGTTTATTGACACTATCAAAATTCGGAGTCACCTAGTGCAG | 3230 fluorescence intensity (a.u.)
CCTGCTTAATTATTGCCTAGGATGCTCTGTCATCCTAATTCGGAGTCACCTAGTGCAG | 3250 fluorescence intensity (a.u.)
GTCATGGAACTCGTGGCGTCATCACATCAGCAAATCCAAGCGGAGTCACCTAGTGCAG | 6520 fluorescence intensity (a.u.)
GTTTTGTATGTAATTATTGCTAGTGGATGATGATGTATCACGGAGTCACCTAGTGCAG | 3770 fluorescence intensity (a.u.)
CCAGCCCAGCTGTCCACGTCAGCCATGGCCCTTCTGGTGGCGGAGTCACCTAGTGCAG | 23800 fluorescence intensity (a.u.)
TGAGGGCACAGTGCTCTCGAGCATGTCTGCCACGTAGGATCGGAGTCACCTAGTGCAG | 23800 fluorescence intensity (a.u.)
TATGTGGATAATTGCAGTTCATCCACGTATGACAACTGGGCGGAGTCACCTAGTGCAG | 8410 fluorescence intensity (a.u.)
ATTTTGATCCACCAGTTTACACGCCAGGAATTAAACCATGCGGAGTCACCTAGTGCAG | 3670 fluorescence intensity (a.u.)
